PubChem BioAssay AID493246 – Drosophila RNAi Screening Center, 2011

- Test: 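Genes fly cells need to grow and stay alive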 (primary screen)
- Cell system: Drosophila Kc and S2R+ cells
- Knock-down reagent: long dsRNA against Drosophila genes
- Detection: 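Raw, unnormalised count of remaining cells in each well; per-plate z-scores of cell number underlie the calls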
- Scale: Kc cell number and S2R+ cell number: higher = more cells remaining
- Rule for the call: 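Counted as a hit if cell number falls by a z-score of at least 3 within its plate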
The deposit covers about 21,000 reagents; shown is a random part of those that have a named target and a result. Of all reagents, 429 (2%) got an active call. 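Values are raw and not normalised between plates; calls rest on per-plate z-scores that were not deposited.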 A number with no mark means an inactive call. Names joined by + are all predicted targets of the reagent. The record does not give: the amount of reagent, the time to read-out.

Knock-down of BomBc3 (GeneID 50055) [DRSC15873] resulted in: Kc cell number, rep 1 = 1.35e6; Kc cell number, rep 2 = 1.33e6; S2R+ cell number, rep 1 = 1.19e6; S2R+ cell number, rep 2 = 1.28e6.
Against CG34109 (GeneID 4379890) [DRSC02169] the deposit lists Kc cell number, rep 1 = 1.57e6; Kc cell number, rep 2 = 1.62e6; S2R+ cell number, rep 1 = 1.19e6; S2R+ cell number, rep 2 = 1.28e6.
Depletion of CG34109 (GeneID 4379890) [DRSC02224] resulted in: Kc cell number, rep 1 = 1.58e6; Kc cell number, rep 2 = 1.59e6; S2R+ cell number, rep 1 = 1.16e6; S2R+ cell number, rep 2 = 1.24e6.
After knock-down of CG34109 (GeneID 4379890) [DRSC02225] the results were Kc cell number, rep 1 = 1.47e6; Kc cell number, rep 2 = 1.50e6; S2R+ cell number, rep 1 = 1.05e6; S2R+ cell number, rep 2 = 1.14e6.
Knock-down of Rpn12 (GeneID 39845) [DRSC11275] gave: Kc cell number, rep 1 = 9.36e5 (active); Kc cell number, rep 2 = 9.49e5; S2R+ cell number, rep 1 = 7.10e5; S2R+ cell number, rep 2 = 8.24e5.
For CG4238 (GeneID 33377) [DRSC00090], the values are Kc cell number, rep 1 = 1.55e6; Kc cell number, rep 2 = 1.57e6; S2R+ cell number, rep 1 = 1.11e6; S2R+ cell number, rep 2 = 1.30e6.
After knock-down of CG4238 (GeneID 33377) [DRSC00644], the screen gave Kc cell number, rep 1 = 1.67e6; Kc cell number, rep 2 = 1.75e6; S2R+ cell number, rep 1 = 1.03e6; S2R+ cell number, rep 2 = 1.21e6.
CG12343 (GeneID 36143) [DRSC06135] showed Kc cell number, rep 1 = 1.66e6; Kc cell number, rep 2 = 1.70e6; S2R+ cell number, rep 1 = 1.22e6; S2R+ cell number, rep 2 = 1.39e6.
Against Mur82C (GeneID 40574) [DRSC12011], the entry reads Kc cell number, rep 1 = 1.71e6 (active); Kc cell number, rep 2 = 1.78e6; S2R+ cell number, rep 1 = 8.63e5; S2R+ cell number, rep 2 = 1.05e6.
For Mur82C (GeneID 40574) [DRSC12212], the entry reads Kc cell number, rep 1 = 1.34e6; Kc cell number, rep 2 = 1.30e6; S2R+ cell number, rep 1 = 1.35e6; S2R+ cell number, rep 2 = 1.40e6.
With knock-down of Syt1 (GeneID 33473) [DRSC00156], the record shows Kc cell number, rep 1 = 1.59e6; Kc cell number, rep 2 = 1.61e6; S2R+ cell number, rep 1 = 1.05e6; S2R+ cell number, rep 2 = 1.21e6.
Depletion of Syt1 (GeneID 33473) [DRSC00157] gave: Kc cell number, rep 1 = 1.54e6; Kc cell number, rep 2 = 1.59e6; S2R+ cell number, rep 1 = 1.04e6; S2R+ cell number, rep 2 = 1.20e6.
Syt1 (GeneID 33473) [DRSC00158] gave Kc cell number, rep 1 = 1.50e6; Kc cell number, rep 2 = 1.53e6; S2R+ cell number, rep 1 = 1.07e6; S2R+ cell number, rep 2 = 1.18e6.
Syt1 (GeneID 33473) [DRSC00840] scored Kc cell number, rep 1 = 1.31e6; Kc cell number, rep 2 = 1.41e6; S2R+ cell number, rep 1 = 1.02e6; S2R+ cell number, rep 2 = 1.04e6.
With knock-down of GstE8 (GeneID 37113) [DRSC06678] the results were Kc cell number, rep 1 = 1.38e6; Kc cell number, rep 2 = 1.51e6; S2R+ cell number, rep 1 = 1.19e6; S2R+ cell number, rep 2 = 1.14e6.
With knock-down of CG17111 (GeneID 42727) [DRSC15174], the record shows Kc cell number, rep 1 = 1.44e6; Kc cell number, rep 2 = 1.38e6; S2R+ cell number, rep 1 = 9.79e5; S2R+ cell number, rep 2 = 1.09e6.
After knock-down of CG9899 (GeneID 37676) [DRSC04597] the results were Kc cell number, rep 1 = 1.59e6; Kc cell number, rep 2 = 1.68e6; S2R+ cell number, rep 1 = 1.43e6; S2R+ cell number, rep 2 = 1.70e6.
Knock-down of SERCA (GeneID 49297) [DRSC04600] resulted in: Kc cell number, rep 1 = 1.40e6; Kc cell number, rep 2 = 1.48e6; S2R+ cell number, rep 1 = 1.06e6; S2R+ cell number, rep 2 = 1.07e6.
With knock-down of CG31975 + ovm [DRSC00323], the record shows Kc cell number, rep 1 = 1.50e6; Kc cell number, rep 2 = 1.55e6; S2R+ cell number, rep 1 = 1.00e6; S2R+ cell number, rep 2 = 1.20e6.
dsx-c73A (GeneID 39831) [DRSC09435] showed Kc cell number, rep 1 = 1.37e6; Kc cell number, rep 2 = 1.40e6; S2R+ cell number, rep 1 = 1.12e6; S2R+ cell number, rep 2 = 1.25e6.
After knock-down of dsx-c73A (GeneID 39831) [DRSC09914], the record shows Kc cell number, rep 1 = 1.35e6; Kc cell number, rep 2 = 1.46e6; S2R+ cell number, rep 1 = 1.38e6; S2R+ cell number, rep 2 = 1.42e6.
With knock-down of dsx-c73A (GeneID 39831) [DRSC10429], the screen gave Kc cell number, rep 1 = 1.26e6; Kc cell number, rep 2 = 1.44e6; S2R+ cell number, rep 1 = 1.23e6; S2R+ cell number, rep 2 = 1.34e6.
